The source of these data is publication PMC5013017.

By UniProt entry, the sequences of proteins in these tests, tags left out. Residues count along the entry.
UniProt P05067, residues 672-713: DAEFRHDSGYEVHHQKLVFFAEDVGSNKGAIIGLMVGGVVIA

B1: 6-phosphofructokinase C (protein, UniProt Q01813 1-784)
chain: MDADDSRAPKGSLRKFLEHLSGAGKAIGVLTSGGDAQGMNAAVRAVVRMGIYVGAKVYFIYEGYQGMVDGGSNIAEADWESVSSILQVGGTIIGSARCQAFRTREGRLKAACNLLQRGITNLCVIGGDGSLTGANLFRKEWSGLLEELARNGQIDKEAVQKYAYLNVVGMVGSIDNDFCGTDMTIGTDSALHRIIEVVDAIMTTAQSHQRTFVLEVMGRHCGYLALVSALACGADWVFLPESPPEEGWEEQMCVKLSENRARKKRLNIIIVAEGAIDTQNKPITSEKIKELVVTQLGYDTRVTILGHVQRGGTPSAFDRILASRMGVEAVIALLEATPDTPACVVSLNGNHAVRLPLMECVQMTQDVQKAMDERRFQDAVRLRGRSFAGNLNTYKRLAIKLPDDQIPKTNCNVAVINVGAPAAGMNAAVRSAVRVGIADGHRMLAIYDGFDGFAKGQIKEIGWTDVGGWTGQGGSILGTKRVLPGKYLEEIATQMRTHSINALLIIGGFEAYLGLLELSAAREKHEEFCVPMVMVPATVSNNVPGSDFSIGADTALNTITDTCDRIKQSASGTKRRVFIIETMGGYCGYLANMGGLAAGADAAYIFEEPFDIRDLQSNVEHLTEKMKTTIQRGLVLRNESCSENYTTDFIYQLYSEEGKGVFDCRKNVLGHMQQGGAPSPFDRNFGTKISARAMEWITAKLKEARGRGKKFTTDDSICVLGISKRNVIFQPVAELKKQTDFEHRIPKEQWWLKLRPLMKILAKYKASYDVSDSGQLEHVQPWSV
B2: tenascin receptor (protein, UniProt Q92752 32-1358)
chain: QLEVTTERVQRQSVEEEGGIANYNTSSKEQPVVFNHVYNINVPLDNLCSSGLEASAEQEVSAEDETLAEYMGQTSDHESQVTFTHRINFPKKACPCASSAQVLQELLSRIEMLEREVSVLRDQCNANCCQESAATGQLDYIPHCSGHGNFSFESCGCICNEGWFGKNCSEPYCPLGCSSRGVCVDGQCICDSEYSGDDCSELRCPTDCSSRGLCVDGECVCEEPYTGEDCRELRCPGDCSGKGRCANGTCLCEEGYVGEDCGQRQCLNACSGRGQCEEGLCVCEEGYQGPDCSAVAPPEDLRVAGISDRSIELEWDGPMAVTEYVISYQPTALGGLQLQQRVPGDWSGVTITELEPGLTYNISVYAVISNILSLPITAKVATHLSTPQGLQFKTITETTVEVQWEPFSFSFDGWEISFIPKNNEGGVIAQVPSDVTSFNQTGLKPGEEYIVNVVALKEQARSPPTSASVSTVIDGPTQILVRDVSDTVAFVEWIPPRAKVDFILLKYGLVGGEGGRTTFRLQPPLSQYSVQALRPGSRYEVSVSAVRGTNESDSATTQFTTEIDAPKNLRVGSRTATSLDLEWDNSEAEVQEYKVVYSTLAGEQYHEVLVPRGIGPTTRATLTDLVPGTEYGVGISAVMNSQQSVPATMNARTELDSPRDLMVTASSETSISLIWTKASGPIDHYRITFTPSSGIASEVTVPKDRTSYTLTDLEPGAEYIISVTAERGRQQSLESTVDAFTGFRPISHLHFSHVTSSSVNITWSDPSPPADRLILNYSPRDEEEEMMEVSLDATKRHAVLMGLQPATEYIVNLVAVHGTVTSEPIVGSITTGIDPPKDITISNVTKDSVMVSWSPPVASFDYYRVSYRPTQVGRLDSSVVPNTVTEFTITRLNPATEYEISLNSVRGREESERICTLVHTAMDNPVDLIATNITPTEALLQWKAPVGEVENYVIVLTHFAVAGETILVDGVSEEFRLVDLLPSTHYTATMYATNGPLTSGTISTNFSTLLDPPANLTASEVTRQSALISWQPPRAEIENYVLTYKSTDGSRKELIVDAEDTWIRLEGLLENTDYTVLLQAAQDTTWSSITSTAFTTGGRVFPHPQDCAQHLMNGDTLSGVYPIFLNGELSQKLQVYCDMTTDGGGWIVFQRRQNGQTDFFRKWADYRVGFGNVEDEFWLGLDNIHRITSQGRYELRVDMRDGQEAAFASYDRFSVEDSRNLYKLRIGSYNGTAGDSLSYHQGRPFSTEDRDNDVAVTNCAMSYKGAWWYKNCHRTNLNGKYGESRHSQGINWYHWKGHEFSIPFVEMKMRPYNHRLMAGRKRQSLQF
B3: neurofilament heavy chain (protein, UniProt P12036 1-1020)
chain: MMSFGGADALLGAPFAPLHGGGSLHYALARKGGAGGTRSAAGSSSGFHSWTRTSVSSVSASPSRFRGAGAASSTDSLDTLSNGPEGCMVAVATSRSEKEQLQALNDRFAGYIDKVRQLEAHNRSLEGEAAALRQQQAGRSAMGELYEREVREMRGAVLRLGAARGQLRLEQEHLLEDIAHVRQRLDDEARQREEAEAAARALARFAQEAEAARVDLQKKAQALQEECGYLRRHHQEEVGELLGQIQGSGAAQAQMQAETRDALKCDVTSALREIRAQLEGHAVQSTLQSEEWFRVRLDRLSEAAKVNTDAMRSAQEEITEYRRQLQARTTELEALKSTKDSLERQRSELEDRHQADIASYQEAIQQLDAELRNTKWEMAAQLREYQDLLNVKMALDIEIAAYRKLLEGEECRIGFGPIPFSLPEGLPKIPSVSTHIKVKSEEKIKVVEKSEKETVIVEEQTEETQVTEEVTEEEEKEAKEEEGKEEEGGEEEEAEGGEEETKSPPAEEAASPEKEAKSPVKEEAKSPAEAKSPEKEEAKSPAEVKSPEKAKSPAKEEAKSPPEAKSPEKEEAKSPAEVKSPEKAKSPAKEEAKSPAEAKSPEKAKSPVKEEAKSPAEAKSPVKEEAKSPAEVKSPEKAKSPTKEEAKSPEKAKSPEKEEAKSPEKAKSPVKAEAKSPEKAKSPVKAEAKSPEKAKSPVKEEAKSPEKAKSPVKEEAKSPEKAKSPVKEEAKTPEKAKSPVKEEAKSPEKAKSPEKAKTLDVKSPEAKTPAKEEARSPADKFPEKAKSPVKEEVKSPEKAKSPLKEDAKAPEKEIPKKEEVKSPVKEEEKPQEVKVKEPPKKAEEEKAPATPKTEEKKDSKKEEAPKKEAPKPKVEEKKEPAVEKPKESKVEAKKEEAEDKKKVPTPEKEAPAKVEVKEDAKPKEKTEVAKKEPDDAKAKEPSKPAEKKEAAPEKKDTKEEKAKKPEEKPKTEAKAKEDDKTLSKEPSKPKAEKAEKSSSTDQKDSKPPEKATEDKAAKGK
B4: β-SNAB (protein, UniProt Q9H115 1-298)
chain: MDNAGKEREAVQLMAEAEKRVKASHSFLRGLFGGNTRIEEACEMYTRAANMFKMAKNWSAAGNAFCQAAKLHMQLQSKHDSATSFVDAGNAYKKADPQEAINCLNAAIDIYTDMGRFTIAAKHHITIAEIYETELVDIEKAIAHYEQSADYYKGEESNSSANKCLLKVAAYAAQLEQYQKAIEIYEQVGANTMDNPLLKYSAKDYFFKAALCHFIVDELNAKLALEKYEEMFPAFTDSRECKLLKKLLEAHEEQNSEAYTEAVKEFDSISRLDQWLTTMLLRIKKSIQGDGEGDGDLK
B5: neurofilament light chain (protein, UniProt P07196 1-543)
chain: MSSFSYEPYYSTSYKRRYVETPRVHISSVRSGYSTARSAYSSYSAPVSSSLSVRRSYSSSSGSLMPSLENLDLSQVAAISNDLKSIRTQEKAQLQDLNDRFASFIERVHELEQQNKVLEAELLVLRQKHSEPSRFRALYEQEIRDLRLAAEDATNEKQALQGEREGLEETLRNLQARYEEEVLSREDAEGRLMEARKGADEAALARAELEKRIDSLMDEISFLKKVHEEEIAELQAQIQYAQISVEMDVTKPDLSAALKDIRAQYEKLAAKNMQNAEEWFKSRFTVLTESAAKNTDAVRAAKDEVSESRRLLKAKTLEIEACRGMNEALEKQLQELEDKQNADISAMQDTINKLENELRTTKSEMARYLKEYQDLLNVKMALDIEIAAYRKLLEGEETRLSFTSVGSITSGYSQSSQVFGRSAYGGLQTSSYLMSTRSFPSYYTSHVQEEQIEVEETIEAAKAEEAKDEPPSEGEAEEEEKDKEEAEEEEAAEEEEAAKEESEEAKEEEEGGEGEEGEETKEAEEEEKKVEGAGEEQAAKKKD
B6: peroxiredoxin 1 (protein, UniProt Q06830 1-199)
chain: MSSGNAKIGHPAPNFKATAVMPDGQFKDISLSDYKGKYVVFFFYPLDFTFVCPTEIIAFSDRAEEFKKLNCQVIGASVDSHFCHLAWVNTPKKQGGLGPMNIPLVSDPKRTIAQDYGVLKADEGISFRGLFIIDDKGILRQITVNDLPVGRSVDETLRLVQAFQFTDKHGEVCPAGWKPGSDTIKPDVQKSKEYFSKQK
B7: contactin 1 (protein, UniProt Q12860 21-993)
chain: EFTWYRRYGHGVSEEDKGFGPIFEEQPINTIYPEESLEGKVSLNCRARASPFPVYKWRMNNGDVDLTSDRYSMVGGNLVINNPDKQKDAGIYYCLASNNYGMVRSTEATLSFGYLDPFPPEERPEVRVKEGKGMVLLCDPPYHFPDDLSYRWLLNEFPVFITMDKRRFVSQTNGNLYIANVEASDKGNYSCFVSSPSITKSVFSKFIPLIPIPERTTKPYPADIVVQFKDVYALMGQNVTLECFALGNPVPDIRWRKVLEPMPSTAEISTSGAVLKIFNIQLEDEGIYECEAENIRGKDKHQARIYVQAFPEWVEHINDTEVDIGSDLYWPCVATGKPIPTIRWLKNGYAYHKGELRLYDVTFENAGMYQCIAENTYGAIYANAELKILALAPTFEMNPMKKKILAAKGGRVIIECKPKAAPKPKFSWSKGTEWLVNSSRILIWEDGSLEINNITRNDGGIYTCFAENNRGKANSTGTLVITDPTRIILAPINADITVGENATMQCAASFDPALDLTFVWSFNGYVIDFNKENIHYQRNFMLDSNGELLIRNAQLKHAGRYTCTAQTIVDNSSASADLVVRGPPGPPGGLRIEDIRATSVALTWSRGSDNHSPISKYTIQTKTILSDDWKDAKTDPPIIEGNMEAARAVDLIPWMEYEFRVVATNTLGRGEPSIPSNRIKTDGAAPNVAPSDVGGGGGRNRELTITWAPLSREYHYGNNFGYIVAFKPFDGEEWKKVTVTNPDTGRYVHKDETMSPSTAFQVKVKAFNNKGDGPYSLVAVINSAQDAPSEAPTEVGVKVLSSSEISVHWEHVLEKIVESYQIRYWAAHDKEEAANRVQVTSQEYSARLENLLPDTQYFIEVGACNSAGCGPPSDMIEAFTKKAPPSQPPRIISSVRSGSRYIITWDHVVALSNESTVTGYKVLYRPDGQHDGKLYSTHKHSIEVPIPRDGEYVVEVRAHSDGGDGVVSQVKIS

Results are given in words; binding and its absence hold for the method and conditions named. Binding seen in cells or lysates may run through a third protein. A yes stands for co-enrichment or nearness to the bait. Other partners may have been found.

The assay deals with amyloid β peptide, Aβ1-42 (human (endogenous in hippocampus)) (UniProt P05067). The assay can be described thus: affinity purification with mass spectrometry; pools of caudal hippocampus (3 AD, 3 NC); homogenate on Protein-G magnetic beads coated with antibody to total tau (ab80579) or to Aβ (ab11132); rinsed 3x, eluted; 1% sarcosyl-insoluble pellet resolved on SDS gel, slices digested, LC-MS/MS.
B1: the binding entry is recorded as “binds”. Under B2 stands “binds”; under B3, “binds”; under B4, “binds”. On to B5, for which the binding result was “binds”. The same measure for B6: “binds”; for B7: “binds”.
